Results of single-concentration screens

Chains of the proteins cited; added tags and fusions are not shown. Residues count along the entry.
UniProt P9WNZ1, whole entry: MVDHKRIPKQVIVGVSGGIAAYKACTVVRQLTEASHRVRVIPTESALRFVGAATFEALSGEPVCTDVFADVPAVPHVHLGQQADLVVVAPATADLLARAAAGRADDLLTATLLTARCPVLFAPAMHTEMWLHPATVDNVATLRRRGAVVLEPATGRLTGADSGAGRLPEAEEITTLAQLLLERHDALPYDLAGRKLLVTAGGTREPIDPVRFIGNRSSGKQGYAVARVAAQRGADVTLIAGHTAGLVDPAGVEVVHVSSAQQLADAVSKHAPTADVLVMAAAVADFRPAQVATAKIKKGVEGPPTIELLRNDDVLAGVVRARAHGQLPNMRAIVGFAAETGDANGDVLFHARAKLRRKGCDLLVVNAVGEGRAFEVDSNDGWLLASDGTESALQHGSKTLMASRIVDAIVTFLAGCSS
UniProt Q4DA54, 1-478: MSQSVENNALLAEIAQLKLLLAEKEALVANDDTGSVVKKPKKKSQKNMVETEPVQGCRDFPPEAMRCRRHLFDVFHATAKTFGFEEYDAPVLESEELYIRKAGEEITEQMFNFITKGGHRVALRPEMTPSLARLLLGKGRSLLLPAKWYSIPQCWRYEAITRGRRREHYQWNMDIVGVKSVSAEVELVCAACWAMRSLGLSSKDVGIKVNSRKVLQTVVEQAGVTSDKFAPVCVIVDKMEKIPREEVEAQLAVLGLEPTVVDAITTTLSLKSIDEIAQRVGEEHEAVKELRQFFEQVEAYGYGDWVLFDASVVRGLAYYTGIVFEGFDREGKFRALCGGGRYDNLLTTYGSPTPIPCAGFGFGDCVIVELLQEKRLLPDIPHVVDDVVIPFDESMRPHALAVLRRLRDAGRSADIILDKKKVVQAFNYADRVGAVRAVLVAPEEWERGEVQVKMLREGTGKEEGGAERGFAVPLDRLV

A: 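Enzyme assay of CoaBC with a phosphate dye (Biomol Green) read at 650 nm. Target: Coenzyme A biosynthesis protein CoaBC, Mycobacterium tuberculosis (UniProt P9WNZ1). Tested at 30 µM. Direction is inferred from only a few compounds that gave an IC50; most scored high, so higher reads as stronger inhibition. Most strong results did not repeat in a second test. Size under these conditions: about 67,000 compounds, about 40 of them at 50% or above in at least one test.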
B: 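Histidine-tRNA ligase, Trypanosoma cruzi CL Brener (UniProt Q4DA54). Enzyme assay of histidyl-tRNA synthetase; the read-out is not stated. Concentration: 30 µM. Higher reads as stronger inhibition (inferred: compounds with an IC50 in retests scored well above the rest). About 69,000 compounds were tested under these conditions; 0.045% (about 31) showed 50% or more at least once.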

Results are given as percent effect. The record does not define 0% and 100%; most values in the screen are far below 50% and negative numbers occur (in some assays of this library far below -100). Compounds were drawn at random from those tested, without regard to their results. A dash means the value is not listed here; it may have been measured.

SMILES,A,B
Cc1cc(C)n(CC2CN(CC(=O)NCc3cccs3)CCO2)n1 (stereo not drawn),2.864,4.373
c1ccc(CN2CC[C@@H]3O[C@@H](COCC4CCOCC4)CC[C@@H]32)nc1,2.85,1.639
CCCC(=O)Nc1cccc([C@H]2C[C@@H](NC(C)=O)CCO2)c1,-2.179,3.39
Cc1ncsc1CCN(C)Cc1ccc(Br)o1,10.95,7.879
Cc1scc(C(=O)N2CCC3(CC(=O)NC3=O)C2)c1-c1ccccc1 (stereo not drawn),3.198,1.667
CC(C)CCC(=O)N1CCN(C(=O)c2ccc(-n3cccn3)cc2)CC1,2.404,6.329
COc1ccncc1NC(=O)c1[nH]nc(C(C)C)c1Br,-,8.28
Cc1cnc(C(=O)Nc2cc(F)ccc2OCC2CCCO2)cn1 (stereo not drawn),-0.6479,1.681
c1cc(C2CCN(c3cnccn3)CC2)ncn1,2.283,6
Cc1nnc2n1CCN(Cc1nc3c(F)cccc3[nH]1)C2,-19.42,11.6
Cc1nc(C2CCCN(C(=O)c3cccc4c3OCO4)C2)no1 (stereo not drawn),8.355,4.135
O=C(NCCNc1ncccn1)N1CCCC1c1ccncc1 (stereo not drawn),2.658,-1.22
CCCn1nc2c(cc1=O)CN(CC(=O)Nc1ccncc1)CC2,-3.426,4.943
COc1cc2c(c(OC)c1OC)CCN(CCn1nc(C)cc1C)CC2,5.455,2
Cc1ccc(N2CCCN(C(=O)CCc3nccs3)CC2)nn1,6.789,5.539
O=C(CCN1CCOCC1)Nc1cccc(CNCc2ccsc2)c1,2.675,12.71
CCOc1ccc(NC(=O)CN2CCN(c3nccn3C)CC2)cc1,2.662,3.261
Cc1cnc(NC(=O)N2CCC(N3CCCCC3=O)CC2)s1,3.748,8.466
Cc1cc(C)c(CNC(=O)NCc2ccc3c(c2)CCC3)c(=O)[nH]1,3.457,0.3802
Cc1ccc2nc(C)cc(C(=O)N[C@H]3COC[C@@H]3N3CCOCC3)c2c1,-0.8065,3.911
CCN1C(=O)CC(c2ccccc2)C12CCN(CC1CCOCC1)CC2 (stereo not drawn),2.703,2.913
Cn1ncc2c(N3CC[C@H](O)C3)nc(-c3ccncc3)nc21,2.554,1.212
CC1CN(C(=O)NCCNc2cnccn2)CCO1 (stereo not drawn),6.584,-0.8596
CCS(=O)(=O)N1C[C@@H](c2nnc(C)o2)C[C@H]2OCC[C@H]21,-,7.362
O=C(CCc1cc2n(n1)CCN(Cc1ccncc1)C2)N1CCCC1,3.553,-0.4484
COc1cccc(CN(C)Cc2ccccc2C#N)c1OC,-4.637,0
Cc1ccc(-c2nc(CC(=O)NCC(C)N3CCOCC3)cs2)o1 (stereo not drawn),-4.032,8.38
O=C([C@H]1COC[C@H]2CN(Cc3ccco3)C[C@H]21)N1CCCO1,4.188,4.865
CCN(CC)C(CNCc1ccc(O)cc1)c1ccco1 (stereo not drawn),1.814,1.948
Cc1nc(CN2CCN(c3ccc4nncn4n3)C(C)C2)oc1C (stereo not drawn),2.194,0.5747
Cc1ccoc1-c1nnc(CN2CCn3c(nnc3C3CC3)C2)o1,0.1304,6.415
CC1COCCN1C(=O)Nc1cnc2c(cnn2C(C)C)c1 (stereo not drawn),-3.316,5.848
Cn1cc(C(=O)Nc2cc(F)ccc2OCC2CCCO2)ccc1=O (stereo not drawn),-2.389,2.857
Cc1cc(N(C)CCOc2ccccc2F)nc(N)n1,-6.696,1.657
CCc1nc(NS(=O)(=O)c2ccc(F)cc2Cl)no1,-1.124,9.184
CCCNC(=O)CN1CCN(Cc2csc(C(C)(C)C)n2)CC1,2.828,3.759
O=C1C[C@@H]2[C@H](CCN2Cc2ccco2)N1c1ccsc1,-2.439,5.882
O=C(NC1CC1)[C@@H]1CCO[C@@H]2CCN(CC3CCC3)C[C@@H]21,5.665,3.093
c1coc(-c2nc(CNC3CCC4(CCNCC4)CC3)no2)c1,-17.69,12
c1cncc(OCc2noc3c2CN(Cc2ccco2)CC3)c1,7.519,-8.537
O=C(Cn1nc(Br)nc1Br)N1CCCC1,6.711,5.155
CCn1cc(C(=O)NCCc2nc(-c3ccc(C)cc3)n[nH]2)c(C)n1,0.8589,5.426
Cc1ccc(CN2CC(C(=O)N3CCCC3)C3(CCOCC3)C2)s1 (stereo not drawn),1.65,2.703
c1ccc(C2CCN(c3ncnc4c3CCNC4)CC2)cc1,4.592,32.82
COCCOc1ccccc1C(=O)N(C)Cc1ncc(C)c(OC)c1C,8.423,0.8403
COCCCNC(=O)c1cc(C(C)C)nc(N2CCCCCC2)n1,-0.9238,0.8696
CSCCc1c(-c2ccccc2)ncn1CCNc1cccnc1,-,7.006
CC(c1ccco1)N(C(=O)NCc1ccon1)C1CC1 (stereo not drawn),-3.265,7.143
CC(C)c1ncc2c(n1)CN(Cc1nc(-c3ccco3)no1)CC2,7.456,5.814
Cc1cccc(C2CCN(S(=O)(=O)c3cn(C)cn3)CC2)n1,0.2433,1.493
CN(C)C[C@H]1OC[C@@H]2CCN(S(=O)(=O)c3cccs3)C[C@@H]21,-0.3861,2.732
Cc1ccc(C2CSCCN2C(=O)c2ccsc2)o1 (stereo not drawn),-2.203,-1.695
CCC(CC)(CNC(=O)OC(C)(C)C)NC(=O)C1CC1,-1.98,-1.205
O=S(=O)(NCC1(c2cccs2)CCCC1)c1cccnc1,0.1988,3.704
CCN1CCN(C(=O)c2ccc(=O)n(C)c2)c2ccccc21,1.02,4.678
COCCN1CCCC(c2ncc(C(=O)N(C)C)c(C)n2)C1 (stereo not drawn),10.49,7.895
COCCCSc1ccc(NC(=O)Nc2cn[nH]c2)cc1,-6.667,4.902
CCN(CC1=CCN(C)CC1)C(=O)CCOC,3.236,16.08

Once more, the final 4:

SMILES	A	B
CCN1CCN(C(=O)c2ccc(=O)n(C)c2)c2ccccc21	1.02	4.678
COCCN1CCCC(c2ncc(C(=O)N(C)C)c(C)n2)C1 (stereo not drawn)	10.49	7.895
COCCCSc1ccc(NC(=O)Nc2cn[nH]c2)cc1	-6.667	4.902
CCN(CC1=CCN(C)CC1)C(=O)CCOC	3.236	16.08

Source: ChEMBL document CHEMBL3988442, “University of Dundee, Small-Polar-MMV Screening Library” (2021).